Results are given in words; binding and its absence hold for the method and conditions named. In cells and extracts the contact can be indirect. Some results given as binding are weak or reduced against the parent protein; the word gives no strength.
Experiments:
[1] = target: NLR family, pyrin domain containing 3 (NLRP3) (mouse (endogenous in BMDMs)) (UniProt Q8R4B8); assay: co-IP; IP and immunoblot of endogenous proteins in BMDMs; LPS priming (200 ng/ml, 4 h), Nigericin (10 uM) or ATP; WT and NR4A1-/- cells; with or without 6-MP or Csn-B
[2] = target: Flag-NLRP3 (UniProt Q8R4B8); assay: co-IP; GFP-NR4A1 and Flag-NLRP3 transfected in HEK293T cells; with Nigericin or ATP

Protein sequences, listed by entry. Tags and fused reporters are not part of them.
UniProt Q8R4B8: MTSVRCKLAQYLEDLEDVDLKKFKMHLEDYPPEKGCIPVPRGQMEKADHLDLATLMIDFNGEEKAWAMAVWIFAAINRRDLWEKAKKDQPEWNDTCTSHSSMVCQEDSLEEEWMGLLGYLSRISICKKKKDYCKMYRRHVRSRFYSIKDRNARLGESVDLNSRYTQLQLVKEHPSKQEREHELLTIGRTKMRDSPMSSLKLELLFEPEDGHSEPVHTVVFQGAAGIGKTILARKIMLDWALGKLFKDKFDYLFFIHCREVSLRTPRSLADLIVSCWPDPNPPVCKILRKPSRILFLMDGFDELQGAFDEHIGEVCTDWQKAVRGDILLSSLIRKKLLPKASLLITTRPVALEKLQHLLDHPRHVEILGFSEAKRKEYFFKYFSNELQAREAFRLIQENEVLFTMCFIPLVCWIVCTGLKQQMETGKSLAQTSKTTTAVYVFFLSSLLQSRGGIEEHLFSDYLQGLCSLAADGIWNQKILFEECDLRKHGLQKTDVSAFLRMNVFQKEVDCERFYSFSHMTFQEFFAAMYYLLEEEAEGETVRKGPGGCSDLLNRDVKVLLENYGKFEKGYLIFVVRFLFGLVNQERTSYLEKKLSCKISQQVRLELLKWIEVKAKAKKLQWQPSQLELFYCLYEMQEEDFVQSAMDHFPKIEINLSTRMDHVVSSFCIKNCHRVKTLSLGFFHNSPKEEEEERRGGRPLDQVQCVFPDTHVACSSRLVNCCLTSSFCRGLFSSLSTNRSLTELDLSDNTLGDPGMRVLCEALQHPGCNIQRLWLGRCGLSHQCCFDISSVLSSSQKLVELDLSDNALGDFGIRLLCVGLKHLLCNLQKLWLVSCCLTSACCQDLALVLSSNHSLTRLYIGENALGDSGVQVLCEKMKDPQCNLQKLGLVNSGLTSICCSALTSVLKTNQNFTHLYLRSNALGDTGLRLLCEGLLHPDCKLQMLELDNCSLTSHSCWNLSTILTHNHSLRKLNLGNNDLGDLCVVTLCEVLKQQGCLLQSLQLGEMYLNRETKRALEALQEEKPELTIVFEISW
UniProt P12813: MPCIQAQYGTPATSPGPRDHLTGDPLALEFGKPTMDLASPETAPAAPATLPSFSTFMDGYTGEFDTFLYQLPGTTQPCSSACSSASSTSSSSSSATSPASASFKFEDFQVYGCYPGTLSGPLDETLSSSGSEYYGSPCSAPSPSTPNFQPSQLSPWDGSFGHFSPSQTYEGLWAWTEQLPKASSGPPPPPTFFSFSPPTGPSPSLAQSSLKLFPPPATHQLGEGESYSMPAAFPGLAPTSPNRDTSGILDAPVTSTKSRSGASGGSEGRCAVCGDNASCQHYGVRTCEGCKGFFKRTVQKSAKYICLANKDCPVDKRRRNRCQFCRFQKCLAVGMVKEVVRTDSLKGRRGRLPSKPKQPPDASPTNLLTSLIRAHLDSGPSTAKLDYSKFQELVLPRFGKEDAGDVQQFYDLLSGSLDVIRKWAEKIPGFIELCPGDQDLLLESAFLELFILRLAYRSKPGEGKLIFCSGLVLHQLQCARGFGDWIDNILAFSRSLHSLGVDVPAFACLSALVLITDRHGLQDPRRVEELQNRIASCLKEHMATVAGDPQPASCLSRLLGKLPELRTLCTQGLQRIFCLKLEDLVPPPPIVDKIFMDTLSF

Substance | binding [1] | binding [2]
NR4A1 (from UniProt P12813 1-601) | binds | –
GFP-NR4A1 (from UniProt P12813 1-601) | – | binds

Source: paper PMC8684771
